Results are given in words; binding and its absence hold for the method and conditions named.
What was measured:
[1] = molecular target: HsCEP135 82–144 (amino acids 82–144 of human CEP135, centrosomal protein of 135 kDa) (human) (UniProt Q66GS9); assay: condition: only under reducing conditions (2 mM DTT); 20 μl at 23 mg/ml injected; SEC-MALS; reducing conditions: 20 mM Tris-HCl, pH 7.5, 150 mM NaCl, with 2 mM DTT; S-200 10/30 column; 20 μl at 23 mg/ml injected; 10°C; both purified
[2] = molecular target: Kif21a_M947C (regulatory coiled-coil domain of human kinesin-4 KIF21A with the mutation M947C) (human) (UniProt Q7Z4S6); assay: SEC-MALS; 20 mM Tris-HCl, pH 7.5, 150 mM NaCl, with or without 2 mM DTT (reducing and oxidizing conditions); S-200 13/10 column; 100 μl at 2 mg/ml injected; 10°C; both purified

| Binder | binding [1] | binding [2] |
| --- | --- | --- |
| HsCEP135 82–144 (amino acids 82–144 of human CEP135, centrosomal protein of 135 kDa) (domain or fragment, UniProt Q66GS9 82-144, looked up, coiled-coil fragment with one cysteine (Cys110) and one methionine per monomer; Under oxidizing conditions Cys110 forms a homotypic disulfide bridge between the two chains of the parallel coiled-coil dimer; Calculated molecular weight 7.71 kDa) NNELYLELMKLREHSDQHVKELKTSLKKCARETADLKFLNNQYAHKLKLLEKESKAKNERIQQ | no binding |  |
| Kif21a_M947C (regulatory coiled-coil domain of human kinesin-4 KIF21A with the mutation M947C) (domain or fragment, UniProt Q7Z4S6 938-1017) MTISNMEADCNRLLKQREELTKRREKLSKRREKIVKENGEGDKNVANINEEMESLTANIDYINDSISDCQANIMQMEEAK |  | no binding (tested: 100 μl at 2 mg/ml injected) |

Reference: article PMC6146289, “Combinatorial use of disulfide bridges and native sulfur-SAD phasing for rapid structure determination of coiled-coils” (Bioscience Reports, 2018)
